The results in this text go back to paper doi:10.1101/707216.

Amino acid sequences for entries named in this document (tags omitted).
UniProt Q2YD98: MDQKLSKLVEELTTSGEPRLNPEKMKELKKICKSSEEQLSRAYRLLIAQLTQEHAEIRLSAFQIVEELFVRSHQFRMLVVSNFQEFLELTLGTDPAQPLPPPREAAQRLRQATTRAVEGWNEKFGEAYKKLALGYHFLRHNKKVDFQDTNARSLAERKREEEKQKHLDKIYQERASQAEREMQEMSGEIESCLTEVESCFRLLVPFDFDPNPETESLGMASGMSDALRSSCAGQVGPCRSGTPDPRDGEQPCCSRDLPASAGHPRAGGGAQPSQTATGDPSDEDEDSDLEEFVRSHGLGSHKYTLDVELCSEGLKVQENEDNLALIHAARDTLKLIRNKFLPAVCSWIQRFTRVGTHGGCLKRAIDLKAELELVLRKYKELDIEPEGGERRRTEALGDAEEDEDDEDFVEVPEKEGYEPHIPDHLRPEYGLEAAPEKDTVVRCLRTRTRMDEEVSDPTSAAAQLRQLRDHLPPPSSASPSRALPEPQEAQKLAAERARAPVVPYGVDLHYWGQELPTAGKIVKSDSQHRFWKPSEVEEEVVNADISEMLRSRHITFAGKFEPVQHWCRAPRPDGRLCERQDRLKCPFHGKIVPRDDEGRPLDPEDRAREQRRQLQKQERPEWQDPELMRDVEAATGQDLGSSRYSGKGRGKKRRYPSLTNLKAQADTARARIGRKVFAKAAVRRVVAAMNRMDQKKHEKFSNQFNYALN
UniProt Q93009: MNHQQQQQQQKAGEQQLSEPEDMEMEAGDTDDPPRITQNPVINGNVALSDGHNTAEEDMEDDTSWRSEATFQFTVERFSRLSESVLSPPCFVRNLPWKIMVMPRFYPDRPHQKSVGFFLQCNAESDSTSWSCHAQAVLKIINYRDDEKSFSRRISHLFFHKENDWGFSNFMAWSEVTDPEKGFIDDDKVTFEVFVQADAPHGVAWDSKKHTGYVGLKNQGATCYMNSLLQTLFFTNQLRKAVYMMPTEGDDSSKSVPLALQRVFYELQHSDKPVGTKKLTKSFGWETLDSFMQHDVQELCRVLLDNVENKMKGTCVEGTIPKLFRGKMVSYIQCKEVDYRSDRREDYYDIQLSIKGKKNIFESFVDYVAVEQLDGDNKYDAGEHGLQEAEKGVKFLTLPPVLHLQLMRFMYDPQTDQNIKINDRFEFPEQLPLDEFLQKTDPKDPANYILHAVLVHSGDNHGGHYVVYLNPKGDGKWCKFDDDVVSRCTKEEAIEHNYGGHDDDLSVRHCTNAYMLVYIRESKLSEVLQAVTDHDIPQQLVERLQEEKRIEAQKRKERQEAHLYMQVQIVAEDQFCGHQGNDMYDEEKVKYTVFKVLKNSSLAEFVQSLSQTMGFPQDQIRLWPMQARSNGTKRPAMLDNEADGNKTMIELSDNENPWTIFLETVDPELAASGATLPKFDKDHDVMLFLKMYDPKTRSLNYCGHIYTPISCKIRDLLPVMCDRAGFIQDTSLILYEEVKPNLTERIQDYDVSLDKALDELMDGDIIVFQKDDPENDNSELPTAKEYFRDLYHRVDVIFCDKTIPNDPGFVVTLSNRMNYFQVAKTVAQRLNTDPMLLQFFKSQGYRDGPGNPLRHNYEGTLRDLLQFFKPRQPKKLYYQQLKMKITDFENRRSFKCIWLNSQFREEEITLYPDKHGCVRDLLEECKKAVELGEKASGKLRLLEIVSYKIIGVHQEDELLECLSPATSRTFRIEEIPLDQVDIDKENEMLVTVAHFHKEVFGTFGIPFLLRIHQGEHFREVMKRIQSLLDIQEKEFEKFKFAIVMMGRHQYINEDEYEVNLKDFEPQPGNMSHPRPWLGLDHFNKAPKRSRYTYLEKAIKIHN

No constants are given. Whether binding was seen depends on the method and setting. In cells and extracts the contact can be indirect. Here binding means that the protein was enriched with, or labelled near, the bait; the list need not be complete.

This test has as its target GFP-UVSSA^WT (human) (UniProt Q2YD98). The test is described as follows: affinity purification with mass spectrometry.

In the case of USP7 (from UniProt Q93009 1-1102), the binding result was “binds”.
